# Laboratory results as given in patent publication EP4813383A1, “USE OF TAFAMIDIS AND PHARMACEUTICALLY ACCEPTABLE SALT THEREOF IN PREVENTION, ALLEVIATION, OR TREATMENT OF DISEASES ASSOCIATED WITH HIF-2a” (Huaya Jiyuan (Shenzhen) Pharmaceutical Co., Ltd., priority 2024, dated 2025).
# For at least one compound, name, drawing or mass did not settle the structure.
# System: Cisplatin-induced renal injury and anemia rat model
# Experiment: Cisplatin-induced renal injury and anemia rat model
# Assay type: in vivo, Male Sprague-Dawley (SD) rats
# Conditions: 10 mg/kg daily oral for four weeks; normal control healthy red, cisplatin group white discoloration and edema
# Protocol: Male Sprague-Dawley (SD) rats are allowed a one-week acclimation period, after which cisplatin (6 mg/kg) is administered through tail vein injection. A second injection is given one week later. Two weeks after the first administration, successful establishment of a renal disease model is confirmed by measuring serum creatinine and urea levels. The established rat model is randomly divided into four groups: a control group (n = 7), a cisplatin group (n = 6), a roxadustat group (n = 6), and a tafamidis group (n = 6). The roxadustat group and tafamidis group are orally administered the corresponding compound (roxadustat or tafamidis) at 10 mg/kg daily for four consecutive weeks. […] Statistical significance is determined by one-way analysis of variance (ANOVA), and then a Dunnett's test is performed for comparison with the cisplatin group (*P < 0.05, **P < 0.01, ***P < 0.001).
# Left kidney samples collected from cisplatin-induced rats are fixed in 4% paraformaldehyde, dehydrated, embedded in paraffin, and sectioned. […] The degree of renal tubular injury is assessed using a semi-quantitative scoring system (Paller score): 0 (no injury), 1 (<25% injury), 2 (25% to 50% injury), 3 (50% to 75% injury), and 4 (>75% injury). In addition, the entire tissue section is assessed at a 0.7× magnification to determine the extent of collagen fiber deposition shown by Masson's trichrome staining. […]
smiles,measurement,value
Cc1nc(C(=O)NCC(=O)O)c(O)c2ccc(Oc3ccccc3)cc12 [roxadustat],Gross observation of kidney tissues (color),purplish red
